Results are given in words; binding and its absence hold for the method and conditions named. Binding seen in cells or lysates may run through a third protein. Binding calls can cover weak binding; strength is not graded here.

Protein sequences, listed by entry. Tags and fused reporters are not part of them. Lines headed by an entry give the natural chain unless they say otherwise; changes in a name come on top. Chains listed by the source or under a name are the forms on record and can include a tag or linker.
UniProt Q8IWA4: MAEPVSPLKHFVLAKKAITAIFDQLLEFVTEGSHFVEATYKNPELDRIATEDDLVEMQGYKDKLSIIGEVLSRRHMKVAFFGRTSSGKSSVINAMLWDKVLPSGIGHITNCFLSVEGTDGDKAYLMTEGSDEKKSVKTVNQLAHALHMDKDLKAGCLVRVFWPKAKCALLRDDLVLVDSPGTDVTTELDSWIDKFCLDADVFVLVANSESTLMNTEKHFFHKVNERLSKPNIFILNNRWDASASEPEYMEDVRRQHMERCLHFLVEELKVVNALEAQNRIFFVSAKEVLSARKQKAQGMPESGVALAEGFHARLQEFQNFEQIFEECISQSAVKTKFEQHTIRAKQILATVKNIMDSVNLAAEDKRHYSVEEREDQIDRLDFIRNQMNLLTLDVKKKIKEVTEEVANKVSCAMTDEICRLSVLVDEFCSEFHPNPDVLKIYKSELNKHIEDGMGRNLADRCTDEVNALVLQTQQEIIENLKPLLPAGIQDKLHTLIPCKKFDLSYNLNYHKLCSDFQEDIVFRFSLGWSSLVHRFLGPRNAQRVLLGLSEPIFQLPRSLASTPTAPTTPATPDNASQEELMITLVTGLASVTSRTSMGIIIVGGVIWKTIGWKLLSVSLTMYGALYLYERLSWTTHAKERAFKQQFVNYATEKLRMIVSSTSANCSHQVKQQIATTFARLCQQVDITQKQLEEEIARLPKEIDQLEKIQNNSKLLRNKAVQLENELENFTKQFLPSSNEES
recombinant βIIPKC (GST-βIIPKC) (P05771-2, form named): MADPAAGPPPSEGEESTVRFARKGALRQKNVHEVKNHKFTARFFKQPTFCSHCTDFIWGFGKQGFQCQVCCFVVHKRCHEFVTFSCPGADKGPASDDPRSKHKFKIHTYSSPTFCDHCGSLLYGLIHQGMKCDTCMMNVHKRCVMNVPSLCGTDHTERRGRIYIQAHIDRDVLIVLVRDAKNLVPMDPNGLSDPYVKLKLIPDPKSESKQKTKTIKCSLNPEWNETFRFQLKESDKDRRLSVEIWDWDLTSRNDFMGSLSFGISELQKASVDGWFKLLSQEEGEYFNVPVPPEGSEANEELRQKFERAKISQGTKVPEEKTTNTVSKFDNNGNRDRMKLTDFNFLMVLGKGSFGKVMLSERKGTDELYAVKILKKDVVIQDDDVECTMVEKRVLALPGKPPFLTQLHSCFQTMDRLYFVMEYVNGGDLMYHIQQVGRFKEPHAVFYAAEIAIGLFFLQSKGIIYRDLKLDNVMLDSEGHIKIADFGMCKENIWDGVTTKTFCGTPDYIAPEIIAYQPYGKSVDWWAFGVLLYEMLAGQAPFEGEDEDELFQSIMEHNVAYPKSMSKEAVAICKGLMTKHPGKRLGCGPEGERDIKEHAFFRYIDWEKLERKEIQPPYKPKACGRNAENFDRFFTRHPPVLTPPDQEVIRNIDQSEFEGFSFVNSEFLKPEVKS

For the test, the target named is recombinant Mfn1 (GST-Mfn1) (UniProt Q8IWA4). The experiment in a line: co-IP; recombinant GST-Mfn1 (25 ng) incubated with recombinant GST-βIIPKC (25 ng) in the presence and absence of PS/DAG/Ca2+ for 30 min at 37 °C; immunoprecipitation with anti-Mfn1 and βIIPKC, western blot; both purified. (In general: A western blot detects proteins with antibodies after separation by electrophoresis.)

On to “recombinant βIIPKC (GST-βIIPKC) (from UniProt P05771-2 1-673) (enzyme)”, for which the binding result is listed as “binds”.

Values taken from article PMC6338754.
